Laboratory results from paper PMC5715081, “Purification and functional comparison of nine human Aquaporins produced in Saccharomyces cerevisiae for the purpose of biophysical characterization” (Scientific Reports, 2017).
These are yes or no findings as the source states them, for the method shown. Some results given as binding are weak or reduced against the parent protein; the word gives no strength. Where a sequence is shown, tags or fusion partners need not be part of it.

T1: human AQP3-TEV-GFP-His10 fusion (human), Q92482
T1 chain: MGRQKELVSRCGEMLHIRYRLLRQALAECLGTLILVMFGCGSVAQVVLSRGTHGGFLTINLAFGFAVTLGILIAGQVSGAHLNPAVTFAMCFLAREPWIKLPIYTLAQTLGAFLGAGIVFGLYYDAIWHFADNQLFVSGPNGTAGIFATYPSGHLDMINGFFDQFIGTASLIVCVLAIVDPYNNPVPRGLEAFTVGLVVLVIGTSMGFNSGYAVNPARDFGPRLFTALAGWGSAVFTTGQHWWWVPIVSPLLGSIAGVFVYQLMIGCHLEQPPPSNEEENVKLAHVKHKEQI


Tests used:
[1] = target: human AQP10-His8 (human) (UniProt Q96PS8); assay: SDS-PAGE (SDS-resistant oligomers); crude membranes of S. cerevisiae producing AQP10-His8 in a 15-L bioreactor at 15 °C, separated by SDS-PAGE; Coomassie staining or western blotting
[2] = target: T1, human AQP3-TEV-GFP-His10 fusion …; assay: SDS-PAGE (SDS-resistant oligomers); peak fractions of Ni-affinity purified, detergent solubilised AQP-TEV-GFP-His10 fusions separated by SDS-PAGE; in-gel fluorescence and Coomassie staining; both purified; conditions: remark: other sources report otherwise

binding [1]	binding [2]	Binder
binds	–	human AQP10-His8 (protein, UniProt Q96PS8 1-301) MVFTQAPAEIMGHLRIRSLLARQCLAEFLGVFVLMLLTQGAVAQAVTSGETKGNFFTMFLAGSLAVTIAIYVGGNVSGAHLNPAFSLAMCIVGRLPWVKLPIYILVQLLSAFCASGATYVLYHDALQNYTGGNLTVTGPKETASIFATYPAPYLSLNNGFLDQVLGTGMLIVGLLAILDRRNKGVPAGLEPVVVGMLILALGLSMGANCGIPLNPARDLGPRLFTYVAGWGPEVFSAGNGWWWVPVVAPLVGATVGTATYQLLVALHHPEGPEPAQDLVSAQHKASELETPASAQMLECKL
–	binds	human AQP3-TEV-GFP-His10 fusion, Q92482 1-292 (protein) MGRQKELVSRCGEMLHIRYRLLRQALAECLGTLILVMFGCGSVAQVVLSRGTHGGFLTINLAFGFAVTLGILIAGQVSGAHLNPAVTFAMCFLAREPWIKLPIYTLAQTLGAFLGAGIVFGLYYDAIWHFADNQLFVSGPNGTAGIFATYPSGHLDMINGFFDQFIGTASLIVCVLAIVDPYNNPVPRGLEAFTVGLVVLVIGTSMGFNSGYAVNPARDFGPRLFTALAGWGSAVFTTGQHWWWVPIVSPLLGSIAGVFVYQLMIGCHLEQPPPSNEEENVKLAHVKHKEQI
